The target of this assay is T1, epidermal growth factor latrophilin and seven transmembrane domain-containing protein 1 (ELTD1), Flag-tagged (human) (UniProt Q9HBW9).
T1 sequence: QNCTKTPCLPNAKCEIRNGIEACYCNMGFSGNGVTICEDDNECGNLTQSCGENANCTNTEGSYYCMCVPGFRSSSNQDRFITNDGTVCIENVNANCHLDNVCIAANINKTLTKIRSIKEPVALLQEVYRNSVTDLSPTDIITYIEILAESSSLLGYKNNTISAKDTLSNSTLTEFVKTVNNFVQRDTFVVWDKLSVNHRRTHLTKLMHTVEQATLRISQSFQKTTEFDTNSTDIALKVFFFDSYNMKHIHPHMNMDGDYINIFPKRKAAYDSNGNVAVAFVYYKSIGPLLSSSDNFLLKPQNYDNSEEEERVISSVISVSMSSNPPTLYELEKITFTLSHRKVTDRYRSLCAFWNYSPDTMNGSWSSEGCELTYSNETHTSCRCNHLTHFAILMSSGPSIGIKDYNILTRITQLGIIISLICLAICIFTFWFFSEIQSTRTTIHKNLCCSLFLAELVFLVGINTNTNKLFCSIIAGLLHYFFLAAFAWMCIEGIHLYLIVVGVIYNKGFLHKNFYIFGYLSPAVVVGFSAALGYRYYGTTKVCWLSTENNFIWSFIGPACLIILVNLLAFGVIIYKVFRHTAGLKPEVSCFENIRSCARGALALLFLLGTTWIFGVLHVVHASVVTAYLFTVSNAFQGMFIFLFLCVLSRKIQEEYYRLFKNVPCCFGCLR
The assay can be described thus: affinity purification with mass spectrometry; lysate of cell lines expressing Flag-ELTD1, anti-Flag M2 magnetic beads, 4 °C overnight, SDS-PAGE, silver staining, tryptic digestion, Orbitrap Exploris 480.

These are yes or no findings as the source states them, for the method shown. Binding seen in cells or lysates may run through a third protein. These calls come from enrichment with a bait or labelling near it, and not all partners need be listed. Where a sequence is shown, tags or fusion partners need not be part of it.

B1: HPIP (hematopoietic PBX1-interacting protein) (protein, UniProt Q96AQ6 1-731)
chain: MASCPDSDNSWVLAGSESLPVETLGPASRMDPESERALQAPHSPSKTDGKELAGTMDGEGTLFQTESPQSGSILTEETEVKGTLEGDVCGVEPPGPGDTVVQGDLQETTVVTGLGPDTQDLEGQSPPQSLPSTPKAAWIREEGRCSSSDDDTDVDMEGLRRRRGREAGPPQPMVPLAVENQAGGEGAGGELGISLNMCLLGALVLLGLGVLLFSGGLSESETGPMEEVERQVLPDPEVLEAVGDRQDGLREQLQAPVPPDSVPSLQNMGLLLDKLAKENQDIRLLQAQLQAQKEELQSLMHQPKGLEEENAQLRGALQQGEAFQRALESELQQLRARLQGLEADCVRGPDGVCLSGGRGPQGDKAIREQGPREQEPELSFLKQKEQLEAEAQALRQELERQRRLLGSVQQDLERSLQDASRGDPAHAGLAELGHRLAQKLQGLENWGQDPGVSANASKAWHQKSHFQNSREWSGKEKWWDGQRDRKAEHWKHKKEESGRERKKNWGGQEDREPAGRWKEGRPRVEESGSKKEGKRQGPKEPPRKSGSFHSSGEKQKQPRWREGTKDSHDPLPSWAELLRPKYRAPQGCSGVDECARQEGLTFFGTELAPVRQQELASLLRTYLARLPWAGQLTKELPLSPAFFGEDGIFRHDRLRFRDFVDALEDSLEEVAVQQTGDDDEVDDFEDFIFSHFFGDKALKKRSGKKDKHSQSPRAAGPREGHSHSHHHHHRG
For B1, the binding result is “binds”.
